Counter-ions that a name gives are not always drawn. The list shows a part of the results. This data set is noisy: repeats of one test often differ as much as different tests do.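 Human U-2 OS cells stably expressing a GFP sensor with a nuclear import signal and classical export signal were transfected to produce PR50, a 50-repeat proline–arginine dipeptide from ALS/FTD gene C9ORF72. Nuclear-minus-cytoplasm GFP was scaled from DMSO (low) to PR-only (high), scored against plate test wells; strongly negative scores marked PR-reversing hits.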
Each compound was assayed on U-2 OS NCT-C biosensor cells expressing PR50 (assay: Z-score of normalised NCT-C biosensor translocation index in PR50-expressing cells; higher = more nuclear biosensor (more disrupted nuclear export)). Conditions: 3 µM; 24 h.
In the case of `NC[C@@H]1O[C@H](O[C@H]2[C@@H](O)[C@H](O[C@@H]3[C@@H](O)[C@H](N)C[C@H](N)[C@H]3O[C@H]3O[C@H](CO)[C@@H](O)[C@H](O)[C@H]3N)O[C@@H]2CO)[C@H](N)[C@@H](O)[C@@H]1O` [Paromomycin sulfate], the Z-score is reported as inactive: -0.232. `NC[C@@H]1O[C@H](O[C@H]2[C@@H](O)[C@H](O[C@@H]3[C@@H](O)[C@H](N)C[C@H](N)[C@H]3O[C@H]3O[C@H](CO)[C@@H](O)[C@H](O)[C@H]3N)O[C@@H]2CO)[C@H](N)[C@@H](O)[C@@H]1O` [Paromomycin Sulfate] was tested, and the Z-score was inactive: 0.0778. With `O=C1N=C(O)CN1N=Cc1ccc(-c2ccc([N+](=O)[O-])cc2)o1` [Dantrolene·Na] the Z-score was inactive: -0.0636. With `C[C@@H](O)[C@H]1C(=O)N2C(C(=O)O)=C(S[C@@H]3CN[C@H](CNS(N)(=O)=O)C3)[C@H](C)[C@H]12` [Doripenem] the Z-score was inactive: 0.125. In the case of `CC(C)(C#N)c1cc(Cn2cncn2)cc(C(C)(C)C#N)c1` [Anastrozole], the Z-score is reported as inactive: -0.102. In the case of `CC(=O)c1ccc2c(c1)N(CCCN(C)C)c1ccccc1S2` [Acepromazine maleate], the Z-score is reported as inactive: -0.736. `CN(C)CCOC(C)(c1ccccc1)c1ccccn1` (stereo not given) [Doxylamine succinate salt] was tested, and the Z-score was inactive: 0.697. In the case of `Oc1cc(O)c2c(c1)O[C@H](c1cc(O)c(O)c(O)c1)[C@H](O)C2` [Epigallocatechin], the Z-score is reported as inactive: 0.339. For `Nc1ccn([C@H]2CC[C@@H](CO)O2)c(=O)n1` [2',3'-  dideoxycytidine], the Z-score was inactive: 0.7. For `Nc1ccn([C@H]2CC[C@@H](CO)O2)c(=O)n1` [Zalcitabine (2',3'-Dideoxycytidine)], the Z-score was inactive: 0.375. With `O=C(Nc1ccccc1C(=O)NC1CCCCNC1=O)c1cc2ccccc2s1` (stereo not given) the Z-score was inactive: -0.473. For `CNC[C@H](O)c1ccc(O)c(O)c1` [(-)-Epinephrine (+)-bitartrate], the Z-score was inactive: -0.732. In the case of `CN1CCN(CCCN2c3ccccc3Sc3ccc(C(F)(F)F)cc32)CC1` [Trifluoperazine dihydrochloride], the Z-score is reported as inactive: -0.578. `CN1CCN(CCCN2c3ccccc3Sc3ccc(C(F)(F)F)cc32)CC1` [Trifluoperazine· HCl] was tested, and the Z-score was inactive: -0.118. `COc1ccc(OC)c(C(O)CNC(=O)CN)c1` (stereo not given) [Midodrine·HCl] was tested, and the Z-score was inactive: -0.121. `CC(S)C(=O)NCC(=O)O` (stereo not given) [Tiopronin] was tested, and the Z-score was inactive: -0.818. In the case of `CC[C@H](C)[C@H](N)C1=N[C@H](C(=O)N[C@@H](CC(C)C)C(=O)N[C@H](CCC(=O)O)C(=O)N[C@H](C(=O)N[C@H]2CCCCNC(=O)[C@H](CC(N)=O)NC(=O)[C@@H](CC(=O)O)NC(=O)[C@H](Cc3cnc[nH]3)NC(=O)[C@@H](Cc3ccccc3)NC(=O)[C@H]([C@@H](C)CC)NC(=O)[C@@H](CCCN)NC2=O)[C@@H](C)CC)CS1` [Bacitracin], the Z-score is reported as inactive: -0.196. `O=C(CCc1ccc(O)cc1)c1c(O)cc(O)cc1O` [Phloretin] was tested, and the Z-score was inactive: -0.427. For `Cc1cn(CCN2CCN(c3ccccc3-c3cc(C#N)cc(C(=O)NCCCN4CCCC4)c3)CC2)c2ccccc12`, the Z-score was inactive: -1.09. `OC(CNCC(O)C1CCc2cc(F)ccc2O1)C1CCc2cc(F)ccc2O1` (stereo not given) [Nebivolol·HCl] was tested, and the Z-score was inactive: -0.563. In the case of `O=C(Nc1ccccc1-c1cn2c(CN3CCNCC3)csc2n1)c1cnc2ccccc2n1`, the Z-score is reported as inactive: -1.69. With `CC(=O)NCCCS(=O)(=O)O` [Acamprosate calcium] the Z-score was inactive: 0.214. In the case of `COc1ccc2c(c1OC)C(=O)O[C@@H]2[C@H]1c2c(cc3c(c2OC)OCO3)CCN1C` [Noscapine hydrochloride], the Z-score is reported as inactive: -0.906. For `COc1ccc2c(c1OC)C(=O)O[C@@H]2[C@H]1c2c(cc3c(c2OC)OCO3)CCN1C` (racemic) [(±)-Noscapine], the Z-score was inactive: 1.47. `CCCCCCCCCCCCCCCC(=O)OC(CC(=O)O)C[N+](C)(C)C` (racemic) [Palmitoyl-DL- Carnitine chloride] was tested, and the Z-score was inactive: 0.179. In the case of `CN(C)CC(=O)Nc1ccc2[nH]c(=O)c3ccccc3c2c1`, the Z-score is reported as inactive: -1.01. With `O=C(CCc1ccc(O)cc1)c1c(O)cc(O)cc1OC1OC(CO)C(O)C(O)C1O` (stereo not given) [Phlorizine] the Z-score was inactive: 0.461. `C=C[C@@](C)(O)CC[C@H]1C(=C)CC[C@H]2C(C)(C)CCC[C@]12C` [Manool] was tested, and the Z-score was inactive: 0.0665. `Nc1nc2ccc(OC(F)(F)F)cc2s1` [Riluzole] was tested, and the Z-score was inactive: -0.564. In the case of `Nc1nc2ccc(OC(F)(F)F)cc2s1` [Riluzole·HCl], the Z-score is reported as inactive: -1.28. `C/C1=C/CCC(C)(O)/C=C\C(C(C)C)C(OC(=O)c2ccc(O)cc2)C1` (stereo not given) [Feroline] was tested, and the Z-score was inactive: -0.0954. In the case of `COc1ccc2c(c1)c(CC(=O)O)c(C)n2C(=O)c1ccc(Cl)cc1` [Indomethacin], the Z-score is reported as inactive: 0.853. With `Cc1nc(C#Cc2cccnc2)cs1` the Z-score was inactive: -0.0895. In the case of `O=C(O)c1cc(=O)cc(C(=O)O)[nH]1` [Chelidamic Acid], the Z-score is reported as inactive: -0.776. With `Cc1oc(-c2ccccc2)nc1CCC(=O)c1ccc(CC2SC(=O)NC2=O)cc1` (stereo not given) [Darglitazone sodium salt] the Z-score was inactive: -0.104. For `O=C(C1CCCCC1)N1CC(=O)N2CCc3ccccc3C2C1` (stereo not given) [Praziquantel], the Z-score was inactive: -0.558. `C(=C\c1ccccc1)/CN1CCN(C(c2ccccc2)c2ccccc2)CC1` [Cinnarizine] was tested, and the Z-score was inactive: -0.497. `CC(=O)c1cc([N+](=O)[O-])c(Sc2ccc(F)cc2F)s1` was tested, and the Z-score was inactive: -1.85. `C[C@H](NC[C@H](O)CP(=O)(O)Cc1ccccc1)c1ccc(Cl)c(Cl)c1` was tested, and the Z-score was inactive: -0.0584. For `COc1ccc([C@@H]2Sc3ccccc3N(CCN(C)C)C(=O)[C@@H]2OC(C)=O)cc1` [Diltiazem·HCl], the Z-score was inactive: -0.488. In the case of `COc1ccc([C@@H]2Sc3ccccc3N(CCN(C)C)C(=O)[C@@H]2OC(C)=O)cc1` [Diltiazem hydrochloride], the Z-score is reported as inactive: 0.0703. `Cc1cn([C@H]2C[C@H](N=[N+]=[N-])[C@@H](CO)O2)c(=O)[nH]c1=O` [Zidovudine (3'-Azido-3'-Deoxythymidine)] was tested, and the Z-score was inactive: -0.438. `Cc1cn([C@H]2C[C@H](N=[N+]=[N-])[C@@H](CO)O2)c(=O)[nH]c1=O` [3'-Azido-3'- deoxythymidine] was tested, and the Z-score was inactive: 0.148. With `C=CCc1ccc(O)c(-c2cc(CC=C)ccc2O)c1` [Magnolol] the Z-score was inactive: -0.622. `NS(=O)(=O)Cc1noc2ccccc12` [Zonisamide sodium salt] was tested, and the Z-score was inactive: 0.172. `NS(=O)(=O)Cc1noc2ccccc12` [Zonisamide] was tested, and the Z-score was inactive: 0.548. In the case of `CC(C[N+](C)(C)C)OC(N)=O` (stereo not given) [Bethanechol chloride], the Z-score is reported as inactive: -0.431. For `CC(C[N+](C)(C)C)OC(N)=O` (stereo not given) [Bethanechol Chloride], the Z-score was inactive: -0.585. `N[C@@H](Cc1c[nH]cn1)C(=O)O` [L-Histidine hydrochloride] was tested, and the Z-score was inactive: 0.0919. `NCCC(O)(P(=O)(O)O)P(=O)(O)O` [Pamidronate Disodium  Pentahydrate (Pamidronic Acid)] was tested, and the Z-score was inactive: -0.238. In the case of `O=c1cc(-c2ccc(O)cc2)oc2cc(O[C@@H]3O[C@H](CO)[C@@H](O)[C@H](O)[C@H]3O)cc(O)c12` [Apigenin-7-glucoside], the Z-score is reported as inactive: 0.104. With `CCCNC(C)C(=O)Nc1c(C)csc1C(=O)OC` (stereo not given) [Articaine·HCl] the Z-score was inactive: -0.445. For `C[C@@H]1O[C@@H](OC[C@H]2O[C@@H](Oc3cc(O)c4c(c3)O[C@H](c3ccc(O)c(O)c3)CC4=O)[C@H](O)[C@@H](O)[C@@H]2O)[C@H](O)[C@H](O)[C@H]1O` [Eriocitrin], the Z-score was inactive: 0.499. With `CC1(C)CC=C(c2cnc3ccccc3c2)c2cc(C(=O)Nc3ccc(C(=O)O)cc3)ccc21` the Z-score was inactive: 0.267. `C[C@]12CCC(=O)C=C1C=C[C@@H]1[C@@H]2CC[C@@]2(C)[C@H]1CC[C@@]21CCC(=O)O1` [Canrenone] was tested, and the Z-score was inactive: -0.203. For `COc1ccc2c(c1)c(CC(=O)O)c(C)n2Cc1ccc(Cl)cc1` [1-(4-Chlorobenzyl)-5- methoxy-2- methylindole-3- acetic acid], the Z-score was inactive: 4.25. `COC(=O)[C@@H](N)Cc1ccc(O)c(O)c1` [L-3,4-Dihydroxy phenylalanine methyl ester hydrochloride] was tested, and the Z-score was inactive: -0.135. With `CC(N)(Cc1ccc(O)cc1)C(=O)O` (racemic) [DL-alpha-Methyl-p tyrosine] the Z-score was inactive: 0.891. In the case of `COC(=O)CCc1ccc(OCC(O)CNC(C)C)cc1` (stereo not given) [Esmolol], the Z-score is reported as inactive: 0.688. In the case of `COCCOC(=O)C1=C(C)NC(C)=C(C(=O)OC(C)C)C1c1cccc([N+](=O)[O-])c1` (stereo not given) [Nimodipine], the Z-score is reported as inactive: -0.461. `NCCS` [Cysteamine hydrochloride] was tested, and the Z-score was inactive: -0.973. In the case of `NCCS` [Cysteamine·HCl], the Z-score is reported as inactive: 0.00235. For `CN1C(C(=O)Nc2ccccn2)=C(O)c2ccccc2S1(=O)=O` [Piroxicam], the Z-score was inactive: 0.597. In the case of `COc1c(C)c2c(c(O)c1C/C=C(\C)CCC(=O)OCCN1CCOCC1)C(=O)OC2` [Mycophenolate Mofetil], the Z-score is reported as inactive: -0.436. In the case of `O=C(O)c1ccc(-n2nc(-c3ccccc3O)nc2-c2ccccc2O)cc1` [Deferasirox], the Z-score is reported as inactive: -0.0284.

Source: the supplement of paper PMC8616043
